Earlier results, collected in patent publication US12605377B2, “Methods of treating fibrosis” (Endeavor Biomedicines, Inc., priority 2020, dated 2026).
For part of these data: For at least one compound, name, drawing or mass did not settle the structure. Some of these results come from one statement about several compounds together.

Key:
[1] = test system: Hh; conditions: Zhu et al. 2019; read-out: ID50 for Hh inhibition; cited from earlier work
[2] = comparator drugs in clinical trials (FIG. 3); cited from earlier work

Row | Compound | IC50 [1] [nM] | patients discontinued treatment for drug related reasons [2] [%]
1 | Cc1c(-c2ccnn2C)nnc(N2CCC(NC(=O)c3ccc(F)cc3C(F)(F)F)CC2)c1C [L-4, N-(1-(4,5-dimethyl-6-(1-methyl-1H-pyrazolyl)pyridazin-3-yl)piperidin-4-yl)-4-fluoro-2-(trifluoromethyl)benzamide] | 2.33 | –
2 | Cc1ccc(=O)n(-c2ccccc2)c1 [pirfenidone] | – | > 20
3 | COC(=O)c1ccc2c(c1)NC(=O)/C2=C(\Nc1ccc(N(C)C(=O)CN2CCN(C)CC2)cc1)c1ccccc1 [nintedanib] | – | > 20
